In PubChem BioAssay AID602254 (Broad Institute, 2012):
Fewer than 10 of roughly 1,000 compounds were called active.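 Rule for the calls: active = fitted half-maximal concentration no higher than twice the top valid tested dose, with signal falling; inconclusive = flat curve with 30 to 70% inhibition, or poor fit; inactive = the rest.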 This is one part of the list. Entries with a potency or affinity are not part of this list.

molecular target: Golgi-associated PDZ and coiled-coil motif-containing protein (Homo sapiens) (UniProt Q9HD26); experiment: CAL PDZ domain peptide-binding inhibitors, dose response, biochemical, fluorescence polarization, untagged CAL PDZ, cherry-pick, set 2 (AID 602254); details: Purified CAL PDZ, TMR peptide fluorescence polarization; at 60 µM (top of the series);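 note: 0% = DMSO neutral control and -100% = unlabeled peptide PRC23 positive control; more negative means stronger blocking of peptide binding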

| Structure (SMILES) | activity change, negative = inhibition |
| --- | --- |
| CC(=O)OCC12COC3c4ccccc4OC(C)(CC1C)C3C2C (stereo not given) | inactive: -2.09% |
| COc1ccc(-n2nc(C(=O)NCC(=O)N3CCC(C)CC3)c3ccccc3c2=O)cc1 | inactive: -2.27% |
| O=C(c1cccc(C(F)(F)F)c1)C1CCCN(C(=O)CCn2cnnn2)C1 (stereo not given) | inactive: 0.256% |
| COc1cccc(CN2CC(C(=O)NCCCc3ccc(C)cc3)CCC2=O)c1 (stereo not given) | inactive: 0.591% |
| CCOC(=O)Cn1c(=O)oc2cc(S(=O)(=O)N(C)Cc3ccccc3)ccc21 | inactive: -0.806% |
| C=CCCC1CN(CCCC)S(=O)(=O)c2c(F)cccc2O1 (stereo not given) | inactive: -0.415% |
| CCCNC(=O)CCc1c(C)nc2nc(-c3cc(OC)cc(OC)c3)nn2c1C | inactive: -1.96% |
| Cc1ccc(C(C)C)c(OC/C(O)=C(\C#N)c2nc3ccccc3[nH]2)c1 | inactive: -1.42% |
| Cc1ccc(N2CCN(C(=S)Nc3ccccc3)CC2)cc1 | inactive: -9.08% |
| Cc1cc(C)nc(CCNC(=O)CC2C(=O)NCCN2Cc2ccc(F)cc2Cl)n1 (stereo not given) | inactive: -0.364% |
| Cc1ccccc1C(=O)NN1CCOCC1 | inactive: 1.4% |
| O=C(Nc1cccc(S(=O)(=O)N2CCOCC2)c1)c1ccccn1 | inactive: -1.12% |
| CCc1ccc(CN(C)C(C)C(=O)NCc2ccccc2)cc1 (stereo not given) | inactive: 0.258% |
| O=C(O)c1c(-c2ccc(Cl)cc2)cn2ccccc12 | inactive: -0.658% |
| CCN1CCN(C(c2cc(OC)ccc2OC)c2nnnn2Cc2ccccc2)CC1 (stereo not given) | inactive: -4.93% |
| O=C(CN(Cc1ccccc1)S(=O)(=O)c1ccc(F)cc1)NCCC1=CCCCC1 | inactive: 1.49% |
| O=C(c1cnn(C(=O)CN2CCCC2=O)c1)c1ccccc1O | inactive: 3.88% |
| NS(=O)(=O)c1ccc2nc(NC(=O)c3ccc4c(c3)OCCO4)sc2c1 | inactive: 11.1% |
| Cc1c(Cl)cccc1NC(=S)N(CCN(C)C)C(C)c1ccccn1 (stereo not given) | inactive: -8.05% |
| CN(CC1CCCO1)S(=O)(=O)c1ccc(C(=O)N2CCN(c3ccccc3)CC2)cc1 (stereo not given) | inactive: -0.495% |

| Structure (SMILES) | activity change, negative = inhibition |
| --- | --- |
| CC(NC(=O)CCC(=O)NCc1ccc(F)cc1)c1ccccc1 (stereo not given) | inactive: -1.48% |
| COc1cc(SC)ccc1C(=O)NC1CCCCC1 | inactive: -7.54% |
| CC(C)(Oc1ccc(Cl)cc1)C(=O)NCc1ccc(S(N)(=O)=O)cc1 | inactive: -1.4% |
| CN(C(=O)c1cccc(NC(=O)c2ccccc2)c1)C1CCCCC1 | inactive: 1.36% |
| COc1ccc(Nc2nc3ccccc3nc2NS(=O)(=O)c2cccs2)cc1 | inactive: -1.62% |
| CCCn1nnc(NC(=O)c2ccc3c(c2)OCO3)n1 | inactive: 2.04% |
| CCCCN1CC(COC)Oc2cccc(F)c2S1(=O)=O (stereo not given) | inactive: 0.529% |
| Cc1cc(Nc2ccccc2Cl)nc(-c2ccccc2O)n1 | inactive: 1.86% |
| CC(C)CNC(=S)NC1CCCC1 | inactive: 0.758% |
| Cc1ccc(-c2nc(N)n(C(=O)c3cccs3)n2)cc1 | inactive: -1.07% |
| CC(C)(C)c1cc(C(=O)NNc2cccc(Cl)c2)n(Cc2ccccc2)n1 | inactive: -0.821% |
| COc1ccc(NS(=O)(=O)c2cc(NC(=O)Cc3n[nH]c(=O)c4ccccc34)ccc2OC)cc1 | inactive: 2.99% |
| O=C(O)Cn1c(-c2ccccc2)cc2ccccc21 | inactive: -5.11% |
| COc1ccc(OCC(=O)Nc2nc3c(s2)CCCC3)cc1 | inactive: 4.2% |
| Cc1nc2c3cc(Cl)ccc3n(CCN3CCOCC3)c2s1 | inactive: -0.504% |
| O=C1OC(COc2ccc(Br)cc2)CN1c1ccccc1 (stereo not given) | inactive: -1.12% |
| CCN(C(=O)CN1C(=O)/C(=C/c2ccccc2)SC1=S)C1CCS(=O)(=O)C1 (stereo not given) | inactive: 2.96% |
| COc1ccc(-c2noc(-c3ccccc3C(=O)NCC3CCCO3)n2)cc1 (stereo not given) | inactive: -0.781% |
| O=C(NC1CCCCC1)N1CCN(c2nc(-c3ccccc3)cs2)CC1 | inactive: -3.39% |
| CCOC(=O)C1(CCCc2ccccc2)CCN(Cc2cnn(C)c2)CC1 | inactive: 0.665% |

Quoted from the listing for reference:

| Structure (SMILES) | activity change, negative = inhibition |
| --- | --- |
| Cc1cc(Nc2ccccc2Cl)nc(-c2ccccc2O)n1 | inactive: 1.86% |
| CC(C)CNC(=S)NC1CCCC1 | inactive: 0.758% |
| Cc1ccc(-c2nc(N)n(C(=O)c3cccs3)n2)cc1 | inactive: -1.07% |
| CC(C)(C)c1cc(C(=O)NNc2cccc(Cl)c2)n(Cc2ccccc2)n1 | inactive: -0.821% |
| COc1ccc(NS(=O)(=O)c2cc(NC(=O)Cc3n[nH]c(=O)c4ccccc34)ccc2OC)cc1 | inactive: 2.99% |

Going on with the list.

| Structure (SMILES) | activity change, negative = inhibition |
| --- | --- |
| Cc1ccc(S(=O)(=O)Nc2c(C)n(C)n(-c3ccccc3)c2=O)cc1 | inactive: -1.36% |
| COc1ccc(C(=O)Nc2ccc(S(=O)(=O)Nc3nccc(C)n3)cc2)cc1OC | inactive: 2.45% |
| O=C(Oc1ccccc1)N1CCOCC1 | inactive: 0.207% |
| COc1ccc(Nc2ncc(C(=O)N3CCC(C(N)=O)CC3)c3ccccc23)cc1 | inactive: 0.212% |
| CC1CCC(NC(=O)c2nn(C)c3c2CSc2ccccc2-3)CC1 (stereo not given) | inactive: -0.08% |
| COc1ccc(CCNc2nc(-c3ccccn3)cs2)cc1OC | inactive: -0.104% |
| Cc1ccc(OCC(=O)Nc2ccc(-c3nc4ncccc4o3)cc2)cc1 | inactive: 1.17% |
| CCc1ccc2nc(N(CCN(C)C)C(=O)c3ccc4ccccc4c3)sc2c1 | inactive: -3.83% |
| Cc1ccc(NC(=O)c2c(-c3ccccc3)noc2C)nc1 | inactive: -14.1% |
| CCN(C(=O)CN1C(=O)/C(=C/c2ccccc2F)SC1=S)C1CCS(=O)(=O)C1 (stereo not given) | inactive: -1.37% |
| CCOC(=O)C(/C=N/c1cc(C)nn1-c1ccccc1)=C(\C)O | inactive: 3.31% |
| O=C(COc1ccc(Cl)cc1Cl)Nc1ccc(CN2CCOCC2)cc1 | inactive: 1.64% |
| COC(=O)c1cc(-c2ccccc2)sc1NC(=O)CN1C(=O)c2ccccc2C1=O | inactive: -1.65% |
| CC(=O)N1CCc2cc(S(=O)(=O)NCC(=O)NCc3ccc(F)cc3)ccc21 | inactive: 1.04% |
| N#CCCN1CCN(S(=O)(=O)c2ccc(S(=O)(=O)NC3CCCCC3)cc2)CC1 | inactive: -0.226% |
| CN(c1ccc(OCC(=O)N2CCC(C(N)=O)CC2)cc1)S(=O)(=O)c1cccs1 | inactive: -3.85% |
| O=C(COc1ccc2c(c1)OCO2)Nc1nccs1 | inactive: 1.01% |
| CNC(=O)c1cc2cc(OC)ccc2n1CCN(C)C | inactive: 1.02% |
| Cc1ncc(CN2CCN(C3CCCC3)C(CCO)C2)s1 (stereo not given) | inactive: -4.61% |
| COc1ccccc1N(CC(=O)N1CCN(c2ccccc2)CC1)S(=O)(=O)c1ccc(C)cc1 | inactive: -2.13% |
